# According to publication PMC5996148:
# The other results are listed elsewhere or left out.
# Columns and labels:
# Assay in all cases: protein microarray (ProtoArray v5.0), streptavidin-Alexa Fluor 647
# Conditions in all cases: 3'-biotin; 20 mM Tris (pH 7.5), 5 mM MgCl2, 100 mM KCl, 0.1% Tween-20, A/T-rich and random oligonucleotide blockers; temperature not stated; high values mean tight binding
# [1] = test system: Uncharacterized protein C11orf74 (human)
# [2] = test system: Uncharacterized protein C12orf60 (human)
# [3] = test system: Uncharacterized protein C12orf65 (human)
# [4] = test system: Uncharacterized protein C15orf39 (human)
# [5] = test system: Uncharacterized protein C16orf45 (human)
# [6] = test system: Uncharacterized protein C17orf66 (human)
# [7] = test system: Uncharacterized protein C18orf1 (human)
# [8] = test system: Uncharacterized protein C1orf74 (human)
# [9] = test system: Uncharacterized protein C2orf27 (human)
# [10] = test system: Uncharacterized protein C2orf57 (human)
# [11] = test system: Uncharacterized protein C2orf62 (human)
# [12] = test system: Uncharacterized protein C3orf62 (human)
# [13] = test system: Uncharacterized protein C4orf32 (human)
# [14] = test system: Uncharacterized protein C6orf142 homolog (human)
# [15] = test system: Uncharacterized protein C8orf41 (human)
# [16] = test system: Uncharacterized protein CXorf38 (human)
# [17] = test system: Uncharacterized protein KIAA1109 (human)
# [18] = test system: Uncharacterized serine/threonine-protein kinase SgK494 (human)
# [19] = test system: Uridine-cytidine kinase 2 (human)
# Urocortin-2 (human) = test system: Urocortin-2 (human)
sequence,measurement,setting,value
GGGAGGCTGAGGCAGG [G4-1 biotinylated (PQS2)],binding signal,[1],-0.347 z-score
same,binding signal,[2],-0.358 z-score
same,binding signal,[3],-0.287 z-score
same,binding signal,[4],-0.318 z-score
same,binding signal,[5],-0.328 z-score
same,binding signal,[6],-0.318 z-score
same,binding signal,[7],-0.335 z-score
same,binding signal,[8],-0.308 z-score
same,binding signal,[9],-0.281 z-score
same,binding signal,[10],-0.336 z-score
same,binding signal,[11],-0.354 z-score
same,binding signal,[12],-0.296 z-score
same,binding signal,[13],-0.325 z-score
same,binding signal,[14],-0.283 z-score
same,binding signal,[15],-0.34 z-score
same,binding signal,[16],-0.34 z-score
same,binding signal,[17],-0.275 z-score
same,binding signal,[18],-0.282 z-score
same,binding signal,[19],-0.342 z-score
same,binding signal,Urocortin-2 (human),-0.283 z-score

# At a glance, part of the list above.
sequence,measurement,setting,value
GGGAGGCTGAGGCAGG [G4-1 biotinylated (PQS2)],binding signal,[17],-0.275 z-score
same,binding signal,[18],-0.282 z-score
